These are yes or no findings as the source states them, for the method shown. In cells and extracts the contact can be indirect. Some results given as binding are weak or reduced against the parent protein; the word gives no strength.
Target: T1, MST2 (STK3), endogenous in Huh7 cells (human (endogenous in Huh7)) (UniProt Q13188)
T1 sequence: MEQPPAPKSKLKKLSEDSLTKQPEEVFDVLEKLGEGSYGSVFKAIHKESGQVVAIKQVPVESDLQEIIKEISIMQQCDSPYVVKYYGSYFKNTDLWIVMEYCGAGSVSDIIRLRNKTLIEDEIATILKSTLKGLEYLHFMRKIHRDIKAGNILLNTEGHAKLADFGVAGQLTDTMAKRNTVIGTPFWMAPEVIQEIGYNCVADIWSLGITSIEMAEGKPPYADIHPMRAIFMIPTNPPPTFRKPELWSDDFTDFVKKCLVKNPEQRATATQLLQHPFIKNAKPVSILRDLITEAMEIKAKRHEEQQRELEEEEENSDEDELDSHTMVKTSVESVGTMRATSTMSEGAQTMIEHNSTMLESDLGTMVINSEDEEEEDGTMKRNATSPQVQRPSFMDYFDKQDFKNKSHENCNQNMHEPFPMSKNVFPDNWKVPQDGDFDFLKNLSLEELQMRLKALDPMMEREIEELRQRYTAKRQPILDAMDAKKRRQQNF
Test: co-IP; endogenous proteins in Huh7 lysate (RIPA buffer); 2 ug monoclonal antibody and uMACS Protein G MicroBeads, 4 C overnight; washed with RIPA and low salt buffer; western blot; isotype IgG as control

- binding: binds
Substance: Cyclin-dependent kinase 5 (CDK5), endogenous in Huh7 cells (from UniProt Q00535 1-292) (enzyme)

Source: article PMC11961382
